The test deals with TRIM33 with C-terminal FLAG (UniProt Q9UPN9). The test can be described thus: affinity purification with mass spectrometry; TRIM33-FLAG expressed in AGS-EBV-Z cells, dox 24 h; 6 mg lysate on anti-FLAG M2 magnetic beads 4 h at 4°C; RIPA buffer (50 mM Tris-HCl pH 8.0, 300 mM NaCl, 0.1% sodium deoxycholate, 0.5% NP40 substitute, 2 mM EDTA); two independent experiments.

Amino acid sequences for entries named in this document (tags omitted).
UniProt Q9UPN9: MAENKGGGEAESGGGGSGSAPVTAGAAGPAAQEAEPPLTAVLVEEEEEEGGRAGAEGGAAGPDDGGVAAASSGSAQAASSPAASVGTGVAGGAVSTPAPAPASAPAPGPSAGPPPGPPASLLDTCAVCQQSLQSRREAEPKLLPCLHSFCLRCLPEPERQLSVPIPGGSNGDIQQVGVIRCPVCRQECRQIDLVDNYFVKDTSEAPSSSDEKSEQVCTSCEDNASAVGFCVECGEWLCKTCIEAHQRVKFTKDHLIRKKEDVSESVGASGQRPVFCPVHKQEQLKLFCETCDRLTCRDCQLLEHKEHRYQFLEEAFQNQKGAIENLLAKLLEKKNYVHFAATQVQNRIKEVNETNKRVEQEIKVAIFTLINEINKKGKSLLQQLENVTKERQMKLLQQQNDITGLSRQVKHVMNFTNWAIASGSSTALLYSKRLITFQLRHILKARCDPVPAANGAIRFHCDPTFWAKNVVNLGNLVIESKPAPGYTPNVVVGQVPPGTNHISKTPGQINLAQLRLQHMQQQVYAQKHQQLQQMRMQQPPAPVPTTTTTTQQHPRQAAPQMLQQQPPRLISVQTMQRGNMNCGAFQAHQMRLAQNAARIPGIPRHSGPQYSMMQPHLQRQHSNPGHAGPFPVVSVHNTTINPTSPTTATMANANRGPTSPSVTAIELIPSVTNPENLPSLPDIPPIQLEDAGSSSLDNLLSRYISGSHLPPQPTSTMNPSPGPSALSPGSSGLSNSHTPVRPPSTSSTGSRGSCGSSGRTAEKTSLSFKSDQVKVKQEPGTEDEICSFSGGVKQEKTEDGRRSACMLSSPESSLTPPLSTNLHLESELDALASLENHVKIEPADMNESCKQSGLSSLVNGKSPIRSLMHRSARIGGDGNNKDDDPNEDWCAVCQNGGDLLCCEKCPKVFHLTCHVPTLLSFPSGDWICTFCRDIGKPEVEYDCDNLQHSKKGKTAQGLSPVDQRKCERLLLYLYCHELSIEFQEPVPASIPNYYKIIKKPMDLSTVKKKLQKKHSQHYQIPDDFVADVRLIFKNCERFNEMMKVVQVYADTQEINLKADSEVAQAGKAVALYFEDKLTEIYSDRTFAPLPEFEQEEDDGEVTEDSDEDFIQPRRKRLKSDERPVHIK
UniProt P03206: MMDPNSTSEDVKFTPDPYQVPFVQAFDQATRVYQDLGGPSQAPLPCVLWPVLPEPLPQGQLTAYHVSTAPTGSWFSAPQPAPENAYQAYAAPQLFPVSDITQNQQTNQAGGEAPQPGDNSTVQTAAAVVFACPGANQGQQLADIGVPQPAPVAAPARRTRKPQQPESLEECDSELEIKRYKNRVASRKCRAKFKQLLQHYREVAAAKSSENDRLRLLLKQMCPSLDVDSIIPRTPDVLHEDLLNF

No constants are given. Whether binding was seen depends on the method and setting. Binding seen in cells or lysates may run through a third protein. Here binding means that the protein was enriched with, or labelled near, the bait; the list need not be complete.

Regarding “BZLF1 from the dox-inducible cassette (B95-8 EBV strain) (from UniProt P03206 1-245)”, the binding result is listed as “binds”.

(Values after article PMC10353822.)
